PubChem BioAssay AID504834 (National Center for Advancing Translational Sciences (NCATS), 2011)
In all, about 320,000 compounds went through this assay and about 22,000 (6.9%) were called active. Inconclusive results, whose numbers are uncertain, are shown with a selection of clear calls. Calls come from the whole dose curve; as a rule, active = well fitted inhibition curve with a large enough effect; inconclusive = small, poorly fitted or top-dose-only effect, or another doubt; inactive = no such curve, though single readings can be large or run the other way. A potency beside an inconclusive call is a rough fit, not a confirmed value.

Experiment: Primary qHTS for delayed death inhibitors of the malarial parasite plastid, 96 hour incubation
Settings: P. falciparum luciferase reporter growth; series mostly up to 28.7 µM
Summary of the method: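 P. falciparum expressing integrated firefly luciferase, in erythrocytes at 2% hematocrit, 0.05% parasitemia, incubated with compounds 96 h at 37 C, 5% CO2. Growth inhibition read as loss of luminescence; two-generation exposure targets delayed-death apicoplast inhibitors.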
Potency is the fitted concentration of half-maximal effect.

SMILES | Potency
CCCCS(=O)(=O)N1CCC(C(=O)NCC2CCCO2)CC1 (centres undefined) | inactive
CCN1c2nc3c(C)cccn3c(=O)c2CC2(C(=O)N(C)C(=O)N(C)C2=O)C1C (centres undefined) | active: 3.29 µM
O=C1CCc2cc(S(=O)(=O)NCCCC(=O)N3CCN(Cc4ccc5c(c4)OCO5)CC3)ccc2N1 | active: 13.1 µM
COc1ccc([N+](=O)[O-])cc1N(CC(=O)N1CCCC1)S(C)(=O)=O | inconclusive: 11.7 µM [inhibitor, partial curve]
Cc1ccc(C)c(NC2=C(Cl)C(=O)OC2OC(C)C)c1 (centres undefined) | inactive
COc1ccccc1NC(=O)c1ccccc1NC(=O)c1ccccc1C(=O)O | inconclusive: 2.94 µM [inhibitor, single point]
O=C(C(c1ccccc1)c1ccccc1)N1CCN(CCN2C(=O)c3cccc4cccc(c34)C2=O)CC1 | inconclusive: 20.8 µM [inhibitor, partial curve, poor fit]
O=C(Nc1ccncc1NC(=O)c1cccc([N+](=O)[O-])c1)c1cccc([N+](=O)[O-])c1 | active: 2.33 µM
Cc1nc2ccccc2nc1CN1CCN(Cc2ccc(F)c(F)c2)C(CCO)C1 (centres undefined) | inconclusive: 2.33 µM [inhibitor, partial curve, poor fit]
COc1ccc(O[C@H]2C=C[C@@H](c3ccccc3)O[C@@H]2COC(=O)CC/C(C)=N/OC[C@@H](O)[C@H]2O[C@@H]3OC(C)(C)O[C@@H]3[C@H]2O)cc1 | inconclusive: 18.5 µM [inhibitor, single point]
CN(CCOC(=O)/C=C/c1ccco1)Cc1ccccc1 | inactive
CCOc1ccc(S(=O)(=O)N2CCN(C(=S)NCC3CCCO3)CC2)cc1 (centres undefined) | active: 2.94 µM
COc1ccc(Br)cc1CNC(=O)CCC(=O)n1nc(C)c2ccccc21 | inconclusive: 10.4 µM [inhibitor, single point]
CC(C)COc1ccc(CNC(=S)N/N=C/c2ccc([N+](=O)[O-])cc2)cc1 | inconclusive: 4.65 µM [inhibitor, partial curve, poor fit]
O=C(NCc1ccccc1)c1cc(=O)c2ccccc2o1 | inactive
O=S1(=O)C=C(N2CCCCC2)c2ccccc21 | inconclusive: 7.38 µM [inhibitor, partial curve]
Cc1ccc(/C=C/c2nc3ccccc3c(=O)n2CCc2ccccc2)cc1 | inconclusive: 6.57 µM [inhibitor, partial curve]
COc1ccc(-c2cc(C)no2)cc1S(=O)(=O)N1CCOc2ccc(Cl)cc21 | active: 10.4 µM
CCCCOc1cc(C)nc(NCc2ccccc2)n1 | inconclusive: 11.7 µM [inhibitor, single point]
CCOC(=O)C1(CCOc2ccccc2)CCN(Cc2ccc(O)cc2)CC1 | inactive
CC(CCc1ccco1)N(C)S(=O)(=O)c1csc(C(N)=O)c1 (centres undefined) | inconclusive: 13.1 µM [inhibitor, single point]
COc1cccc(OC)c1C(=O)N1CCN=C1SCc1cccnc1 | inconclusive: 5.22 µM [inhibitor, partial curve]

By substructure: the compounds so far with a furan ring, fused or not (2)
SMILES | Potency
CN(CCOC(=O)/C=C/c1ccco1)Cc1ccccc1 | inactive
CC(CCc1ccco1)N(C)S(=O)(=O)c1csc(C(N)=O)c1 (centres undefined) | inconclusive: 13.1 µM [inhibitor, single point]

(next part)

SMILES | Potency
Cc1ccc2c(C(=O)N3CCN(c4ccccc4)CC3)cc(-c3cccnc3)nc2c1C | inactive
COc1cccc(C(C(=O)Nc2ccc(F)cc2)N(C(=O)Cn2nnc3ccccc32)C2CC2)c1 (centres undefined) | active: 10.4 µM
O=C(NCc1ccc(Cl)cc1)c1cccc2c1C(=O)N(CC1CCCO1)C2 (centres undefined) | inactive
CCOC(=O)C(NC(=O)N1CCCCC1)(c1ccccc1)C(F)(F)F (centres undefined) | inconclusive: 1.17 µM [inhibitor, partial curve, poor fit]
CC(=O)Nc1ccc(S(=O)(=O)N(C)CC(=O)N/N=C/c2cccc(O)c2)cc1 | inactive
O=C(c1ccc(-n2ccnc2)cc1)N1CCCC(CO)(Cc2cccc(Cl)c2)C1 (centres undefined) | inactive
COCCn1c(N)c(C(=O)NCc2cccs2)c2nc3ccccc3nc21 | inconclusive: 18.5 µM [inhibitor, single point]
CCOC(=O)C1CCCN(C(=O)c2ccc3c(c2)NC(=O)C(N2CCOCC2)S3)C1 (centres undefined) | inconclusive: 5.86 µM [inhibitor, partial curve, poor fit]
CCSC1=C(C#N)C(c2ccc(Cl)cc2)C2=C(CCCC2=O)N1 (centres undefined) | inactive
CCOc1cc(/C=N\NC(N)=O)cc(Br)c1OC(C)C | inconclusive: 9.28 µM [inhibitor, partial curve, poor fit]
Cc1ccc(/C=N/NC(=O)c2csc3c2CCCC3)cc1 | inactive
Cc1cc(S(=O)(=O)Nc2ccc(C(=O)NCC(C)(C)N3CCOCC3)cc2)ccc1F | inactive
CCOc1ccc(CCNC(=O)C2CC=CCC2C(=O)OC(C)C)cc1OCC (centres undefined) | inconclusive: 2.33 µM [inhibitor, single point]
O=C1CCCc2ccccc2N1Cc1ccc(F)cc1 | inconclusive: 0.0037 µM [inhibitor, partial curve, poor fit]
CCN(CC)S(=O)(=O)c1ccc(S(=O)(=O)NCc2cccs2)cc1 | active: 8.28 µM
Cc1c(CCC(=O)NCCCCCC(=O)O)c(=O)oc2c(C)c3oc4c(c3cc12)CCCC4 | inconclusive: 0.165 µM [inhibitor, full curve, poor fit]
CCCc1[nH]nc2c1C(c1cc(OC)ccc1F)C(C#N)=C(N)O2 (centres undefined) | inconclusive: 0.928 µM [inhibitor, partial curve, poor fit]
O=C(NCCC1=CCCCC1)C1CCN(S(=O)(=O)c2cccc(C(F)(F)F)c2)CC1 | inconclusive: 11.7 µM [inhibitor, single point]
Cc1ccc(C(=O)Nc2ccc(S(=O)(=O)NCc3ccco3)cc2)cc1 | inactive
COc1ccc(C(=O)Nc2nc(C)c(C(C)=O)s2)cc1S(=O)(=O)N1CCOCC1 | inconclusive: 0.738 µM [inhibitor, full curve, poor fit]
COC(=O)c1c(NC(=O)C2(C)Cc3ccccc3C(=O)O2)sc2c1CCCC2 (centres undefined) | inconclusive: 0.738 µM [inhibitor, partial curve, poor fit]
COc1ccc(C=O)cc1Cn1ccnc1 | inconclusive: 11.7 µM [inhibitor, single point]
